The inconclusive results got no clear call from the source; some entries with a clear call stand among them for comparison. Where the call is inconclusive, the potency comes from a doubtful curve fit. Active and inactive are the calls of the source. Calls come from the whole dose curve; as a rule, active = well fitted curve in the direction sought with a large enough effect; inconclusive = small, poorly fitted or top-dose-only effect, or effect the other way, or another doubt; inactive = no such curve, though single readings can be large or run the other way.
These compounds were tested against Pyruvate kinase PKLR (Homo sapiens) (UniProt P30613) (assay: Secondary Concentration-Response Assay for Activators of Human Reticulocyte Pyruvate Kinase: for Probe SAR). Details: purified hPK-R, ATP production, Kinase-Glo luminescence; series mostly up to 57.5 µM; activity change, negative = inhibition: at the top concentration.
From the text: NIH Chemical Genomics Center [NCGC]
Wael M. Rabeh, Lyudmila Nedyalkova and Hee-Wan Park [Structural Genomics Consortium, 100 College St. Toronto, Ontario, Canada]
Human pyruvate kinase reticulocyte (hPK-R) enzyme was supplied as a highly purified (>95% pure) preparation from Structural Genomics Consortium in Toronto (Ontario, Canada) and assayed for its ability to generate ATP from ADP using phosphoenolpyruvate (PEP) as a substrate. ATP generation was detected in a coupled reaction by luciferase-mediated luminescence, an ATP-dependent process. Pyruvate kinase substrates, PEP and ADP, were present in the assay at Km and approximately 10-fold below Km respectively. The enzyme was assayed at an intermediate level of activity to screen for both inhibitors and activators.
NCGC Assay Protocol Summary for R-isoform
Three uL of substrate mix (at r.t.) in assay buffer (50 mM Imidazole pH7.2, 50 mM KCl, 7 mM MgCl2, 0.01% Tween 20, 0.05% BSA) was dispensed into white solid bottom 1,536 well microtiter plates so that the final concentrations of substrates in the assay were 0.1 mM ADP and 0.5 mM PEP. 23 nL of compound were delivered by a pin tool and 1 uL of enzyme mix (final concentration of 0.1 nM) in assay buffer (4 degree Celsius) was added. Plates were incubated at room temperature for 1 hour. Two uL of detection mix (Kinase-Glo, Promega; at 4 degree Celsius protected from light) was added and luminescence read by a ViewLux (Perkin Elmer) at 1 second exposure/plate. Data were normalized to the uninhibited (row 31). Additionally, a no enzyme and 5-fold enzyme control was dispensed in row 32, split equally between the two conditions.

Amino acid sequences for entries named in this document (tags omitted). A change or cut given only in a name is not applied to a line headed by its entry.
UniProt P30613: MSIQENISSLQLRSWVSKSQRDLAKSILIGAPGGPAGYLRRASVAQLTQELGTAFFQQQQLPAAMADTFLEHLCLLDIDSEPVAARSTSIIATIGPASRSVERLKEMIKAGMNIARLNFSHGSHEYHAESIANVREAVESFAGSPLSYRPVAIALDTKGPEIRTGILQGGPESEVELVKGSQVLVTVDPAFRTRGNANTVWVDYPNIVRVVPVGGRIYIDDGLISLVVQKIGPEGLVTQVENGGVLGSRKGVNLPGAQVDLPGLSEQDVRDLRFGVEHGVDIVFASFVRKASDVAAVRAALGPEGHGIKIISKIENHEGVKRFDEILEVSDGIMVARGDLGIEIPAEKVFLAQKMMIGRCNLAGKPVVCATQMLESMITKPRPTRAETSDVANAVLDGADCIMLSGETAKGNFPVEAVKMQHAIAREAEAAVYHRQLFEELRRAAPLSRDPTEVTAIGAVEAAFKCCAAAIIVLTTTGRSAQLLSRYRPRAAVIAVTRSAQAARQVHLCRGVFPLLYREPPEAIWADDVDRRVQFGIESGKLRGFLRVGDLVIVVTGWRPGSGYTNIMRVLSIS

SMILES | Potency | activity change, negative = inhibition
CNc1cccc(S(=O)(=O)N2CCN(S(=O)(=O)c3ccc4c(c3)OCCO4)CC2)c1 | inconclusive: 291 nM [rising, full curve] | –
CCNc1cccc(S(=O)(=O)N2CCN(S(=O)(=O)c3ccc4c(c3)OCCO4)CC2)c1 | inconclusive: 73 nM [rising, full curve, poor fit] | –
Nc1cc(S(=O)(=O)N2CCN(S(=O)(=O)c3ccc4c(c3)OCCO4)CC2)ccn1 | inconclusive: 2910 nM [rising, partial curve] | –
O=C1CCc2cc(Cl)c(S(=O)(=O)Nc3ccc(Cl)c(Cl)c3)cc2N1 | – | inactive: -1.27%
O=C1CCc2cc(S(=O)(=O)Nc3ccccc3-c3ccccc3)ccc2N1 | – | inactive: 0.876%
COc1cc(N2C(=O)c3ccccc3C2=O)c2ncccc2c1 | – | inactive: 9.59%

Source: PubChem BioAssay AID2534 (National Center for Advancing Translational Sciences (NCATS), 2010)
